Data set [1] deals with E. coli RNA polymerase core (alpha2 beta beta' omega) (Escherichia coli). The experiment in a line: size-exclusion chromatography. Particulars: RNAP EC without TopoI, purified by SEC. (In gel filtration, larger molecules generally elute earlier.)
For data set [2], the system named is E. coli RNA polymerase core (alpha2 beta beta' omega) + DNA topoisomerase I (TopoI) wild type. In words: size-exclusion chromatography.
Data set [3] shares this test system. The experiment in a line: EMSA.
Data set [4] has the same test system. In words: cryo-EM. Particulars: 5 mM Mg2+, Zn2+.
Data set [5] concerns E. coli RNA polymerase core (alpha2 beta beta' omega) + TopoI-Y704A. In words: size-exclusion chromatography. Particulars: co-elutes with RNAP EC, lower amount than wild type.
Data set [6] concerns E. coli RNA polymerase core (alpha2 beta beta' omega) + TopoI-G703P. In words: size-exclusion chromatography. Particulars: co-elutes with RNAP EC, lower amount than wild type.
Data set [7] deals with E. coli RNA polymerase core (alpha2 beta beta' omega) + TopoI-Y704A. In words: EMSA. Particulars: mutant TopoI binding to preformed RNAP EC, vs wild type. For orientation: A gel shift assay detects complexes by their altered migration in electrophoresis.
The subject of data set [8] is E. coli RNA polymerase core (alpha2 beta beta' omega) + TopoI-G703P. In words: EMSA. As to conditions: mutant TopoI binding to preformed RNAP EC, vs wild type.

Construct, isoform or probe ends are uncertain for at least one entry. For some assays here: A negative result means that nothing was seen under these conditions. For some assays here: The comparison behind a weaker result is the experiment's own reference, which may not be listed here. For some assays here: At least one verdict rests on a figure or table, not on a statement of the authors.

With “CTCTGAATCTCTTCCGACGCGCCGCG / TCGGAAGAGATTCAGAG / GAGUCCGCGGCGCG [minimal scaffold]”, the binding result in data set [1] is “binds”; in data set [2] (TopoI does not co-elute with RNAP EC), “no binding”; in data set [3] (TopoI binding to preformed RNAP EC, no RNAP-TopoI complex), “no binding”.

For the sequence “CTCTGAATCTCTTCCGACGCGCCGCGAAAATTTTTTTTAAAATTATTAATCCC / GGGATTAATAATTTTTTTCATTATTTTTATCGATCTTCGGAAGAGATTCAGAG / GAGUCCGCGGCGCG [bubble scaffold]”, the binding result in data set [4] (consensus 3.8 A) is given as “binds”.

As for “CTCTGAATCTCTTCCGACGCGCCGCGAAAATTTTTTTTTTTTTTTTTTTT / TTAGTTAGTTTTTTTCATTATTTTTATCGATCTTCGGAAGAGATTCAGAG / GAGUCCGCGGCGCG [long overhang scaffold]”, the binding result in data set [4] (at least two orientations) is on record as “binds”.

As to “CTCTGAATCTCTTCCGACGCGCCGCGGGACGTACTGACC / GGTCAGTACGTCCTATCGATCTTCGGAAGAGATTCAGAG / GAGUCCGCGGCGCG [duplex scaffold]”, the binding result is “binds” in data set [1]; “binds more weakly” in data set [5]; “binds more weakly” in data set [6]; “binds” in data set [2] (TopoI co-elutes with RNAP EC); “binds more weakly” in data set [7]; “binds more weakly” in data set [8]. Besides, the binding result in data set [3] (TopoI binding to preformed RNAP EC (2 uM EC, 2-6 uM TopoI)) is given as “binds”; in data set [4] (equimolar EC and TopoI), “binds”.

As for “CTCTGAATCTCTTCCGACGCGCCGCGGGACGTACTGACCTTAGAT / TAGATTGGTCAGTACGTCCTATCGATCTTCGGAAGAGATTCAGAG / GAGUCCGCGGCGCG [short overhang scaffold]”, the binding result in data set [4] is on record as “binds”.

Source of the values: doi:10.1101/2024.10.07.617030.
